{"source": "PubChem BioAssay AID1259308, NCATS – 2017", "purpose": "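Genes whose loss raises luciferase production in HEK293 cells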 (primary screen)", "cell system": "human HEK293 embryonic kidney cells stably expressing firefly luciferase (HEK-CMV-Luc2-Hygro)", "reagents": "single siRNA against human genes, 0.8 pmol siRNA per well", "duration": "72 h", "read-out": "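Reporter luminescence and viable-cell signal on separate replicate plates, given as percent of non-targeting control and median/MAD z-scores, plus per-cell luciferase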", "scale": "total luciferase, z-score: higher = more reporter protein produced", "rule for the call": "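An siRNA counts as active if its total luciferase robust z-score exceeds 3; genes with two or more such siRNAs out of three were retested with fresh siRNAs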", "meaning of the calls": "active = raised luciferase; inactive = no rise", "note": "This is one part, drawn at random, of about 59,000 deposited reagents. About 1,510 of all reagents (2.6%) were called active. 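Calls use total luciferase alone and ignore viability, so some active siRNAs may act by altering cell number.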 Reagents against one gene are numbered here. Not all columns of the deposit are shown. Reagent sequences are not shown."}
The opening 2 records, ahead of the listing:
{"target": "GPATCH11P1 (GPATCH11 pseudogene 1)", "reagent no.": 1, "total luciferase, z-score": 2.2, "activity call": "inactive"}
{"target": "GPATCH11P1 (GPATCH11 pseudogene 1)", "reagent no.": 2, "total luciferase, z-score": -0.68, "activity call": "inactive"}

Results, repeating the preview:
{"target": "GPATCH11P1 (GPATCH11 pseudogene 1)", "reagent no.": 1, "total luciferase, z-score": 2.2, "activity call": "inactive"}
{"target": "GPATCH11P1 (GPATCH11 pseudogene 1)", "reagent no.": 2, "total luciferase, z-score": -0.68, "activity call": "inactive"}
{"target": "GPATCH11P1 (GPATCH11 pseudogene 1)", "reagent no.": 3, "total luciferase, z-score": -0.819, "activity call": "inactive"}
{"target": "SPPL3 (signal peptide peptidase like 3)", "reagent no.": 1, "total luciferase, z-score": -0.171, "activity call": "inactive"}
{"target": "SPPL3 (signal peptide peptidase like 3)", "reagent no.": 2, "total luciferase, z-score": 0.181, "activity call": "inactive"}
{"target": "SPPL3 (signal peptide peptidase like 3)", "reagent no.": 3, "total luciferase, z-score": 1.73, "activity call": "inactive"}
{"target": "VTN (vitronectin)", "reagent no.": 1, "total luciferase, z-score": 0.656, "activity call": "inactive"}
{"target": "VTN (vitronectin)", "reagent no.": 2, "total luciferase, z-score": -0.845, "activity call": "inactive"}
{"target": "VTN (vitronectin)", "reagent no.": 3, "total luciferase, z-score": -0.784, "activity call": "inactive"}
{"target": "MRPL21 (mitochondrial ribosomal protein L21)", "reagent no.": 1, "total luciferase, z-score": 2.02, "activity call": "inactive"}
{"target": "MRPL21 (mitochondrial ribosomal protein L21)", "reagent no.": 2, "total luciferase, z-score": 0.102, "activity call": "inactive"}
{"target": "MRPL21 (mitochondrial ribosomal protein L21)", "reagent no.": 3, "total luciferase, z-score": 0.576, "activity call": "inactive"}
